About 2,000 (0.49%) of roughly 410,000 compounds were called active. Inconclusive means that the source gave no clear call. Such entries were picked first, then a sample of the others. The call rests on the fitted dose curve; tested in HEK293 reporter line. Potencies of inconclusive entries are doubtful fits and often do not repeat.
Assay: qHTS Assay for Foot and Mouth Disease Virus Antivirals: Primary Screen against the MLPCN compound library; further: nearly all actives have a fitted effect of over 55% in size
Conditions: FMDV antiviral cell-based qHTS; activity, negative = inhibition: at 57.9 µM (top of the series)
Potency means the concentration at half of the fitted maximal effect.

Which Potency does the source give for `Cn1c(SCC(=O)N2CCCc3ccccc32)nc2ccccc2c1=O` here?
The Potency was inconclusive: 12.6 µM [inhibitor, partial curve, poor fit].

Which Potency does the source give for `N#CCSc1nnc(COc2cccc3ccccc23)n1-c1ccccc1` here?
The Potency was inconclusive: 14.1 µM [inhibitor, partial curve, poor fit].

Which activity, negative = inhibition does the source give for `CO/N=C(\C)C(Cc1ccc(Cl)nc1)Cc1ccc(Cl)nc1` here?
Its activity, negative = inhibition is inconclusive: -30.3% [inhibitor].

For `Cn1nc(-c2ccc(C(=O)Nc3ccc(F)cc3)cc2)c2ccccc2c1=O`, which Potency is on record?
The Potency was inconclusive: 39.8 µM [inhibitor, partial curve, poor fit].

With `CCc1cccc(C)c1NC(=O)CSc1nnc(CC)n2c1cc1occc12` as the molecule, how does the Potency read?
Its Potency is inconclusive: 22.4 µM [inhibitor, partial curve, poor fit].

For `Cc1ccc(C(=O)N2CCN(c3nc4ccccc4n3C)CC2)cc1`, which “activity, negative = inhibition” value is on record?
Its value is inactive: -32%.

For `Cc1ccc2c(c1)c1ccc3c(c1n2C)C(=O)C=CC3=O`, which Potency is on record?
Its Potency is inconclusive: 31.6 µM [inhibitor, partial curve, poor fit].

Which “activity, negative = inhibition” value does the source give for `Cc1cc(C)n2nc(C)c(-c3ccc(Cl)cc3)c2n1` here?
The value was inactive: -32.5%.

With `O=C(CN1CCN(C(=O)CNC(=O)c2ccc(-c3ccccc3)cc2)CC1)Nc1ccccc1Cl` as the molecule, how does the Potency read?
Its Potency is inconclusive: 28.2 µM [inhibitor, partial curve, poor fit].

With `CC(SCC(=O)Nc1ccccc1)c1nc2ccccc2c(=O)[nH]1` (stereo not given) as the molecule, how does the Potency read?
Its Potency is inconclusive: 2 µM [inhibitor, full curve].

With `CCN1C(=O)CC(C(C)C)N(C2CCCC2)c2nc(Nc3ccc(C(=O)NC4CCN(C)CC4)cc3OC)ncc21` (stereo not given) as the molecule, how does the “activity, negative = inhibition” value read?
Its value is inactive: -34.5%.

For `FC(F)(F)c1ccccc1N1CC1c1ccncc1` (stereo not given), which “activity, negative = inhibition” value is on record?
Its value is inactive: -32%.

Which Potency does the source give for `O=C(Cc1cccs1)N1CCN(S(=O)(=O)c2ccc(F)cc2)CC1` here?
Its Potency is inconclusive: 12.6 µM [inhibitor, partial curve].

With `C=C(C)C(=O)N1CC2(CC(c3cccc(NC(=O)COc4ccc(Cl)cc4)c3)=NO2)C[C@@H]1C(N)=O` (stereo not given in full) as the molecule, how does the “activity, negative = inhibition” value read?
The value was inactive: -30.8%.

With `CCN(CC)CCN1C(=O)c2ccccc2NC1c1ccc(N(C)C)cc1` (stereo not given) as the molecule, how does the Potency read?
Its Potency is inconclusive: 3.16 µM [inhibitor, partial curve, poor fit].

With `Cc1onc(-c2ccccc2)c1C(=O)N/N=C/c1cc(Br)c(Br)o1` as the molecule, how does the Potency read?
The Potency was inconclusive: 25.1 µM [inhibitor, partial curve, poor fit].

Which Potency does the source give for `COc1ccc(OC)c(Nc2cc(C)nc3nc(C)nn23)c1` here?
The Potency was inconclusive: 12.6 µM [inhibitor, partial curve, poor fit].

For `COc1ccc(OC)c(NC(=O)c2cc(-c3cc(Cl)ccc3O)n[nH]2)c1`, which Potency is on record?
The Potency was inconclusive: 20 µM [inhibitor, partial curve].

Which Potency does the source give for `Cc1ccccc1-n1nc(C)c2cc(C(=O)N3CCN(S(=O)(=O)c4ccc(Cl)cc4)CC3)sc21` here?
Its Potency is inconclusive: 3.55 µM [inhibitor, partial curve, poor fit].

For `C=C(C)c1cccc(C(C)(C)NC(=O)N(Cc2ccccc2)Cc2ccco2)c1`, which activity, negative = inhibition is on record?
Its activity, negative = inhibition is inconclusive: -37.8% [inhibitor].

For `O=C(CSc1nnc(-c2ccc3c(c2)OCCO3)o1)N1CCCC1`, which Potency is on record?
The Potency was inconclusive: 39.8 µM [inhibitor, single point].

Which Potency does the source give for `Cc1ccc(-c2ccc(=O)n(Cc3cc(C)ccc3C)n2)cc1` here?
Its Potency is “inactive”.

With `COc1cccc(NC(=O)N(Cc2ccco2)C(C)c2cccs2)c1` (stereo not given) as the molecule, how does the Potency read?
The Potency was inconclusive: 15.8 µM [inhibitor, single point].

Which Potency does the source give for `O=C(CCCCCn1c(=S)[nH]c2cc3c(cc2c1=O)OCO3)NCCc1ccccc1` here?
The Potency was inconclusive: 10 µM [inhibitor, partial curve].

For `O=S(=O)(/N=C(/Nc1cccc2ccccc12)c1ccccc1)c1cccs1`, which Potency is on record?
Its Potency is inconclusive: 3.16 µM [inhibitor, full curve].

For `O=[N+]([O-])c1cccc2cnccc12`, which Potency is on record?
Its Potency is inconclusive: 4.47 µM [inhibitor, partial curve].

Which activity, negative = inhibition does the source give for `Cc1ccc(C)c(OCC(=O)Nn2c(C)nc3ccccc3c2=O)c1` here?
Its activity, negative = inhibition is inconclusive: -36.4% [inhibitor].

With `O=C(Nc1ccc([N+](=O)[O-])cc1Cl)c1cc(Cl)ccc1O` as the molecule, how does the Potency read?
The Potency was inconclusive: 6.31 µM [inhibitor, partial curve, poor fit].

Which Potency does the source give for `Cn1cc(C(=O)CCl)c2ccccc21` here?
The Potency was inconclusive: 22.4 µM [inhibitor, partial curve, poor fit].

Which “activity, negative = inhibition” value does the source give for `Cc1occc1C(=O)NC1CCCN(Cc2ccc(Cl)cc2)C1` (stereo not given) here?
Its value is inactive: -36.9%.

Which Potency does the source give for `COc1cc(OC)c(OC)cc1CN1CCc2nc(N3CCN(c4ccccc4F)CC3)ncc2C1` here?
Its Potency is inconclusive: 11.2 µM [inhibitor, partial curve, poor fit].

For `COc1ccc(NC(=O)c2ccc(-c3ccccc3)cc2)cc1S(=O)(=O)N1CCOCC1`, which Potency is on record?
The Potency was inconclusive: 3.55 µM [inhibitor, full curve, poor fit].

For `CCCCCCSc1cccc(-c2nc3ccccn3c2NCc2ccccc2)c1`, which Potency is on record?
Its Potency is inconclusive: 25.1 µM [inhibitor, single point].

Which Potency does the source give for `Cc1ccccc1-n1c(SCC(=O)c2cc(C)n(C)c2C)nnc1-c1ccncc1` here?
Its Potency is inconclusive: 35.5 µM [inhibitor, partial curve, poor fit].

For `Cc1ccc([C@H]2C[C@H](O)[C@@H](n3cc(-c4ccc(F)cc4)nn3)CN2C(=O)C2CCCCC2)cc1`, which activity, negative = inhibition is on record?
Its activity, negative = inhibition is inconclusive: -32.3% [inhibitor].

For `CCOc1ccc(NC(=O)N(Cc2ccc(CC)cc2)Cc2cn[nH]c2-c2ccc(OC)cc2)cc1`, which “activity, negative = inhibition” value is on record?
Its value is inactive: -31.5%.

With `CC(=O)c1ccccc1NS(=O)(=O)c1c(C)nn(-c2ccccc2)c1C` as the molecule, how does the Potency read?
The Potency was inconclusive: 22.4 µM [inhibitor, single point].

For `NC(=O)c1cc(N2CC2)c([N+](=O)[O-])cc1[N+](=O)[O-]`, which Potency is on record?
The Potency was inconclusive: 1.26 µM [inhibitor, full curve, poor fit].

Which Potency does the source give for `Cc1nc2c(C(=O)N3CCOCC3)cnn2c(C)c1Cc1ccc(Cl)cc1` here?
Its Potency is inconclusive: 12.6 µM [inhibitor, partial curve].

With `Cc1ccccc1-c1nnc(SCC(=O)c2c(N)n(C3CC3)c(=O)[nH]c2=O)o1` as the molecule, how does the Potency read?
The Potency was inconclusive: 4.47 µM [inhibitor, partial curve].

— PubChem BioAssay AID1347131 (National Center for Advancing Translational Sciences (NCATS), 2019)
